# Test results from the supplement of paper PMC8728848.
# Some of the results follow.
# How the values were obtained:
# Experiment in all cases: glycan array binding signal (z-score within array); higher = stronger binding
# Settings in all cases: glycan notation: IUPAC condensed, linker removed; mutation: Q318A
# Neu5Ac(a2-3)Gal = target: Neu5Ac(a2-3)Gal
# Outline: (§1)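 Columns mapping to the same glycan were averaged after glycan names were converted to IUPAC-condensed notation. The data come from 3228 arrays in the Consortium for Functional Glycomics database, limited to those with an available protein sequence. Binding is reported as a within-array Z-score averaged across arrays of one protein sequence and across linkers.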
# [1] = target: Neu5Ac(a2-3)Gal(b1-3)GalNAc
# Outline: as §1
# [2] = target: Neu5Ac(a2-3)Gal(b1-3)GalNAc(b1-3)Gal(a1-4)Gal(b1-4)Glc
# Outline: as §1
# [3] = target: Neu5Ac(a2-3)Gal(b1-3)GalNAc(b1-4)Gal(b1-4)Glc
# Outline: as §1
# [4] = target: Neu5Ac(a2-3)Gal(b1-3)GalNAc(b1-4)[Neu5Ac(a2-3)]Gal(b1-4)Glc
# Outline: as §1
# [5] = target: Neu5Ac(a2-3)Gal(b1-3)GalNAc(b1-4)[Neu5Ac(a2-8)Neu5Ac(a2-3)]Gal(b1-4)Glc
# Outline: as §1
# [6] = target: Neu5Ac(a2-3)Gal(b1-3)GalNAc6S
# Outline: as §1
# [7] = target: Neu5Ac(a2-3)Gal(b1-3)GlcNAc
# Outline: as §1
# [8] = target: Neu5Ac(a2-3)Gal(b1-3)GlcNAc(b1-2)Man
# Outline: as §1
# [9] = target: Neu5Ac(a2-3)Gal(b1-3)GlcNAc(b1-2)Man(a1-3)[GlcNAc(b1-4)][Neu5Ac(a2-3)Gal(b1-3)GlcNAc(b1-2)Man(a1-6)]Man(b1-4)GlcNAc(b1-4)GlcNAc
# Outline: as §1
# [10] = target: Neu5Ac(a2-3)Gal(b1-3)GlcNAc(b1-2)Man(a1-3)[Neu5Ac(a2-3)Gal(b1-3)GlcNAc(b1-2)Man(a1-6)]Man(b1-4)GlcNAc(b1-4)GlcNAc
# Outline: as §1
# [11] = target: Neu5Ac(a2-3)Gal(b1-3)GlcNAc(b1-2)[Neu5Ac(a2-3)Gal(b1-3)GlcNAc(b1-4)]Man(a1-6)[Neu5Ac(a2-3)Gal(b1-3)GlcNAc(b1-2)Man(a1-3)]Man(b1-4)GlcNAc(b1-4)GlcNAc
# Outline: as §1
# [12] = target: Neu5Ac(a2-3)Gal(b1-3)GlcNAc(b1-3)Gal(b1-3)GlcNAc
# Outline: as §1
# [13] = target: Neu5Ac(a2-3)Gal(b1-3)GlcNAc(b1-3)Gal(b1-4)GlcNAc
# Outline: as §1
# [14] = target: Neu5Ac(a2-3)Gal(b1-3)GlcNAc(b1-3)GalNAc
# Outline: as §1
# [15] = target: Neu5Ac(a2-3)Gal(b1-3)GlcNAc(b1-6)GalNAc
# Outline: as §1
# [16] = target: Neu5Ac(a2-3)Gal(b1-3)GlcNAc6S
# Outline: as §1
# [17] = target: Neu5Ac(a2-3)Gal(b1-3)[Fuc(a1-4)]GlcNAc
# Outline: as §1
# [18] = target: Neu5Ac(a2-3)Gal(b1-3)[Fuc(a1-4)]GlcNAc(b1-3)Gal(b1-3)[Fuc(a1-4)]GlcNAc
# Outline: as §1
# [19] = target: Neu5Ac(a2-3)Gal(b1-3)[Fuc(a1-4)]GlcNAc(b1-3)Gal(b1-4)[Fuc(a1-3)]GlcNAc
# Outline: as §1
# [20] = target: Neu5Ac(a2-3)Gal(b1-3)[GlcNAc(b1-6)]GalNAc
# Outline: as §1
# [21] = target: Neu5Ac(a2-3)Gal(b1-3)[Neu5Ac(a2-6)]GalNAc
# Outline: as §1
# [22] = target: Neu5Ac(a2-3)Gal(b1-3)[Neu5Ac(a2-6)]GlcNAc(b1-3)[Fuc(a1-3)[Gal(b1-4)]GlcNAc(b1-6)]Gal(b1-4)Glc
# Outline: as §1
# [23] = target: Neu5Ac(a2-3)Gal(b1-3)]Neu5Ac(a2-3)Gal(b1-4)]GlcNAc
# Outline: as §1
# Neu5Ac(a2-3)Gal(b1-4)Glc = target: Neu5Ac(a2-3)Gal(b1-4)Glc
# Outline: as §1
# [24] = target: Neu5Ac(a2-3)Gal(b1-4)GlcNAc
# Outline: as §1
# [25] = target: Neu5Ac(a2-3)Gal(b1-4)GlcNAc(b1-2)Man
# Outline: as §1
# [26] = target: Neu5Ac(a2-3)Gal(b1-4)GlcNAc(b1-2)Man(a1-3)[GlcNAc(b1-4)][Neu5Ac(a2-3)Gal(b1-4)GlcNAc(b1-2)Man(a1-6)]Man(b1-4)GlcNAc(b1-4)GlcNAc
# Outline: as §1
# [27] = target: Neu5Ac(a2-3)Gal(b1-4)GlcNAc(b1-2)Man(a1-3)[Neu5Ac(a2-3)Gal(b1-4)GlcNAc(b1-2)Man(a1-6)]Man(b1-4)GlcNAc(b1-4)GlcNAc
# Outline: as §1
# [28] = target: Neu5Ac(a2-3)Gal(b1-4)GlcNAc(b1-2)Man(a1-3)[Neu5Ac(a2-3)Gal(b1-4)GlcNAc(b1-2)Man(a1-6)]Man(b1-4)GlcNAc(b1-4)[Fuc(a1-6)]GlcNAc
# Outline: as §1
# [29] = target: Neu5Ac(a2-3)Gal(b1-4)GlcNAc(b1-2)Man(a1-3)[Neu5Ac(a2-6)Gal(b1-4)GlcNAc(b1-2)Man(a1-6)]Man(b1-4)GlcNAc(b1-4)GlcNAc
# Outline: as §1
# [30] = target: Neu5Ac(a2-3)Gal(b1-4)GlcNAc(b1-2)[Neu5Ac(a2-3)Gal(b1-4)GlcNAc(b1-4)]Man(a1-3)[GlcNAc(b1-4)][Neu5Ac(a2-3)Gal(b1-4)GlcNAc(b1-2)[Neu5Ac(a2-3)Gal(b1-4)GlcNAc(b1-6)]Man(a1-6)]Man(b1-4)GlcNAc(b1-4)GlcNAc
# Outline: as §1
# [31] = target: Neu5Ac(a2-3)Gal(b1-4)GlcNAc(b1-2)[Neu5Ac(a2-3)Gal(b1-4)GlcNAc(b1-4)]Man(a1-3)[GlcNAc(b1-4)][Neu5Ac(a2-3)Gal(b1-4)GlcNAc(b1-4)Man(a1-6)]Man(b1-4)GlcNAc(b1-4)GlcNAc
# Outline: as §1
# [32] = target: Neu5Ac(a2-3)Gal(b1-4)GlcNAc(b1-2)[Neu5Ac(a2-3)Gal(b1-4)GlcNAc(b1-6)]Man(a1-6)[Neu5Ac(a2-3)Gal(b1-4)GlcNAc(b1-2)Man(a1-3)][GlcNAc(b1-4)]Man(b1-4)GlcNAc(b1-4)GlcNAc
# Outline: as §1
# [33] = target: Neu5Ac(a2-3)Gal(b1-4)GlcNAc(b1-3)Gal
# Outline: as §1
# [34] = target: Neu5Ac(a2-3)Gal(b1-4)GlcNAc(b1-3)Gal(b1-3)GlcNAc
# Outline: as §1
# [35] = target: Neu5Ac(a2-3)Gal(b1-4)GlcNAc(b1-3)Gal(b1-4)GlcNAc
# Outline: as §1
# [36] = target: Neu5Ac(a2-3)Gal(b1-4)GlcNAc(b1-3)Gal(b1-4)GlcNAc(b1-2)Man(a1-3)[Neu5Ac(a2-3)Gal(b1-4)GlcNAc(b1-3)Gal(b1-4)GlcNAc(b1-2)Man(a1-6)]Man(b1-4)GlcNAc(b1-4)GlcNAc
# Outline: as §1
# [37] = target: Neu5Ac(a2-3)Gal(b1-4)GlcNAc(b1-3)Gal(b1-4)GlcNAc(b1-3)Gal(b1-4)GlcNAc
# Outline: as §1
# [38] = target: Neu5Ac(a2-3)Gal(b1-4)GlcNAc(b1-3)Gal(b1-4)GlcNAc(b1-3)Gal(b1-4)GlcNAc(b1-2)Man(a1-3)[Neu5Ac(a2-3)Gal(b1-4)GlcNAc(b1-3)Gal(b1-4)GlcNAc(b1-3)Gal(b1-4)GlcNAc(b1-2)Man(a1-6)]GalNAc
# Outline: as §1
# [39] = target: Neu5Ac(a2-3)Gal(b1-4)GlcNAc(b1-3)Gal(b1-4)GlcNAc(b1-3)GalNAc
# Outline: as §1
# [40] = target: Neu5Ac(a2-3)Gal(b1-4)GlcNAc(b1-3)Gal(b1-4)GlcNAc(b1-3)[Neu5Ac(a2-3)Gal(b1-4)GlcNAc(b1-3)Gal(b1-4)GlcNAc(b1-6)]GalNAc
# Outline: as §1
# [41] = target: Neu5Ac(a2-3)Gal(b1-4)GlcNAc(b1-3)Gal(b1-4)GlcNAc(b1-6)[Gal(b1-3)]GalNAc
# Outline: as §1
# [42] = target: Neu5Ac(a2-3)Gal(b1-4)GlcNAc(b1-3)Gal(b1-4)[Fuc(a1-3)]GlcNAc
# Outline: as §1
# [43] = target: Neu5Ac(a2-3)Gal(b1-4)GlcNAc(b1-3)GalNAc
# Outline: as §1
binder,measurement,setting,value
"SUN4 (Saccharomyces cerevisiae), P53616 (protein) MGSSHHHHHHSSGLVPRGSHNGSIYGDLADFSGPYEKFEDGTIPCGQFPSGQGVIPISWLDEGGWSGVENTDTSTGGSCKEGSYCSYACQPGMSKTQWPSDQPSDGRSIGGLLCKDGYLYRSNTDTDYLCEWGVDAAYVVSELSNDVAICRTDYPGTENMVIPTYVQAGDSLPLTVVDQDTYYTWQGLKTSAAYYVNNAGISVEDACVWGSSSSGVGNWAPLNFGAGSSDGVAYLSLIPNPNNGNALNFNVKIVAADDSSTVNGECIYENGSFSGGSDGCTVSVTAGKAKFVLYN",glycan array binding signal (z-score),Neu5Ac(a2-3)Gal,-0.84
same,glycan array binding signal (z-score),[1],-0.299
same,glycan array binding signal (z-score),[2],0.327
same,glycan array binding signal (z-score),[3],1.67
same,glycan array binding signal (z-score),[4],-0.248
same,glycan array binding signal (z-score),[5],-0.283
same,glycan array binding signal (z-score),[6],-1.61
same,glycan array binding signal (z-score),[7],0.62
same,glycan array binding signal (z-score),[8],-0.566
same,glycan array binding signal (z-score),[9],-0.299
same,glycan array binding signal (z-score),[10],-0.067
same,glycan array binding signal (z-score),[11],1.64
same,glycan array binding signal (z-score),[12],-0.164
same,glycan array binding signal (z-score),[13],0.146
same,glycan array binding signal (z-score),[14],-0.232
same,glycan array binding signal (z-score),[15],1.33
same,glycan array binding signal (z-score),[16],-0.13
same,glycan array binding signal (z-score),[17],-0.89
same,glycan array binding signal (z-score),[18],0.799
same,glycan array binding signal (z-score),[19],0.535
same,glycan array binding signal (z-score),[20],1.39
same,glycan array binding signal (z-score),[21],-0.003
same,glycan array binding signal (z-score),[22],-0.597
same,glycan array binding signal (z-score),[23],-0.3
same,glycan array binding signal (z-score),Neu5Ac(a2-3)Gal(b1-4)Glc,1.56
same,glycan array binding signal (z-score),[24],-0.355
same,glycan array binding signal (z-score),[25],0.689
same,glycan array binding signal (z-score),[26],-0.326
same,glycan array binding signal (z-score),[27],-0.646
same,glycan array binding signal (z-score),[28],-0.064
same,glycan array binding signal (z-score),[29],0.211
same,glycan array binding signal (z-score),[30],1.43
same,glycan array binding signal (z-score),[31],-0.572
same,glycan array binding signal (z-score),[32],0.346
same,glycan array binding signal (z-score),[33],0.199
same,glycan array binding signal (z-score),[34],-0.309
same,glycan array binding signal (z-score),[35],-0.231
same,glycan array binding signal (z-score),[36],0.264
same,glycan array binding signal (z-score),[37],0.081
same,glycan array binding signal (z-score),[38],0.449
same,glycan array binding signal (z-score),[39],0.859
same,glycan array binding signal (z-score),[40],0.746
same,glycan array binding signal (z-score),[41],-0.202
same,glycan array binding signal (z-score),[42],1.36
same,glycan array binding signal (z-score),[43],0.311

# Random excerpt: two records from the list.
binder,measurement,setting,value
"SUN4 (Saccharomyces cerevisiae), P53616 (protein) MGSSHHHHHHSSGLVPRGSHNGSIYGDLADFSGPYEKFEDGTIPCGQFPSGQGVIPISWLDEGGWSGVENTDTSTGGSCKEGSYCSYACQPGMSKTQWPSDQPSDGRSIGGLLCKDGYLYRSNTDTDYLCEWGVDAAYVVSELSNDVAICRTDYPGTENMVIPTYVQAGDSLPLTVVDQDTYYTWQGLKTSAAYYVNNAGISVEDACVWGSSSSGVGNWAPLNFGAGSSDGVAYLSLIPNPNNGNALNFNVKIVAADDSSTVNGECIYENGSFSGGSDGCTVSVTAGKAKFVLYN",glycan array binding signal (z-score),[20],1.39
same,glycan array binding signal (z-score),[23],-0.3
